Test [1] addresses human mt-TyrRS wild-type monomer as it stands in the covalently linked WT-WT heterodimer (human) (UniProt Q9Y2Z4). The experiment in a line: native gel or EMSA; native 8% PAGE of the linked enzyme (20 ug; the two monomers joined on one chain by a GGGGS x4 linker), 0.75 M Tris pH 8.8, 4 °C, 90 V for 3 h, Western blot (anti-His, anti-mt-TyrRS); migration compared with the unlinked WT/WT dimer; both purified. A general note: A gel shift assay detects complexes by their altered migration in electrophoresis.

The target of test [2] is T1, human mt-TyrRS ΔE264 monomer as it stands in the covalently linked F185L-ΔE264 heterodimer (recoded copy) (human) (UniProt Q9Y2Z4).
T1 sequence: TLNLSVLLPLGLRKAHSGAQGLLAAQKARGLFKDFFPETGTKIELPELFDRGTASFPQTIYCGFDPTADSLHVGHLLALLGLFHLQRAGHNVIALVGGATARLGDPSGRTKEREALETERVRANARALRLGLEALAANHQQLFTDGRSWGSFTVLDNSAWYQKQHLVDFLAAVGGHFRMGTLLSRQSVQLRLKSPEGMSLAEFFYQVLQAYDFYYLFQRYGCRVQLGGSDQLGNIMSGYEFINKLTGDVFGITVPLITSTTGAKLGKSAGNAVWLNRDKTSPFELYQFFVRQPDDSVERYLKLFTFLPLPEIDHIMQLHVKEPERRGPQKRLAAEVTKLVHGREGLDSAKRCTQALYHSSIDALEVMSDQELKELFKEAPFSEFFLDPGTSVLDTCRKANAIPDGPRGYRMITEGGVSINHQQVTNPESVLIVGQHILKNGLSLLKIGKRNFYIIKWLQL
The test is described as above.

Residue numbers refer to the chain shown, from its start. Names may count otherwise. Results are given in words; binding and its absence hold for the method and conditions named. Some entries that bind do so weakly or less than the wild type.

B1: human mt-TyrRS wild-type monomer as it stands in the covalently linked WT-WT heterodimer (enzyme, UniProt Q9Y2Z4 17-477)
chain: TLNLSVLLPLGLRKAHSGAQGLLAAQKARGLFKDFFPETGTKIELPELFDRGTASFPQTIYCGFDPTADSLHVGHLLALLGLFHLQRAGHNVIALVGGATARLGDPSGRTKEREALETERVRANARALRLGLEALAANHQQLFTDGRSWGSFTVLDNSAWYQKQHLVDFLAAVGGHFRMGTLLSRQSVQLRLKSPEGMSLAEFFYQVLQAYDFYYLFQRYGCRVQLGGSDQLGNIMSGYEFINKLTGEDVFGITVPLITSTTGAKLGKSAGNAVWLNRDKTSPFELYQFFVRQPDDSVERYLKLFTFLPLPEIDHIMQLHVKEPERRGPQKRLAAEVTKLVHGREGLDSAKRCTQALYHSSIDALEVMSDQELKELFKEAPFSEFFLDPGTSVLDTCRKANAIPDGPRGYRMITEGGVSINHQQVTNPESVLIVGQHILKNGLSLLKIGKRNFYIIKWLQL
For the molecule B1, the binding result in test [1] was “binds”.

B2: human mt-TyrRS F185L monomer as it stands in the covalently linked F185L-ΔE264 heterodimer (native-sequence copy) (enzyme, UniProt Q9Y2Z4 17-477)
chain: B1 chain with F169L
For B2, the binding entry in test [2] was “binds”.

For the origin of these results see article PMC11758952, “A kinetic model for compound heterozygous pathogenic variants in Tyrosyl-tRNA synthetase gene YARS2-Associated neonatal phenotype” (The Journal of Biological Chemistry, 2024).
